Paper PMC12124498

By UniProt entry, the sequences of proteins in these tests, tags left out. Residues count along the entry.
UniProt P26368: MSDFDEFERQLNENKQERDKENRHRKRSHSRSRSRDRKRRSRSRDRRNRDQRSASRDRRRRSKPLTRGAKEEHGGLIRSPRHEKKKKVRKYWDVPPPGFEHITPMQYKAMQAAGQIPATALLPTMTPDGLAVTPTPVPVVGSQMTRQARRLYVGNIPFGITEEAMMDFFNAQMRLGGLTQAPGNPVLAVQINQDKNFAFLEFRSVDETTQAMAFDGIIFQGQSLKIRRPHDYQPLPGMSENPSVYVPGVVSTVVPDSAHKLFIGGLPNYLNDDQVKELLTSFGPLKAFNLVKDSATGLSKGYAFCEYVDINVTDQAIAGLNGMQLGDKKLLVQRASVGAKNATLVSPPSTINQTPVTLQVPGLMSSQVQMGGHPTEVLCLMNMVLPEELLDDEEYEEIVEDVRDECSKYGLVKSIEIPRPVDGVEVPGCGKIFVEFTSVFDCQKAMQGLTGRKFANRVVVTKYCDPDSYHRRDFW
UniProt O00410: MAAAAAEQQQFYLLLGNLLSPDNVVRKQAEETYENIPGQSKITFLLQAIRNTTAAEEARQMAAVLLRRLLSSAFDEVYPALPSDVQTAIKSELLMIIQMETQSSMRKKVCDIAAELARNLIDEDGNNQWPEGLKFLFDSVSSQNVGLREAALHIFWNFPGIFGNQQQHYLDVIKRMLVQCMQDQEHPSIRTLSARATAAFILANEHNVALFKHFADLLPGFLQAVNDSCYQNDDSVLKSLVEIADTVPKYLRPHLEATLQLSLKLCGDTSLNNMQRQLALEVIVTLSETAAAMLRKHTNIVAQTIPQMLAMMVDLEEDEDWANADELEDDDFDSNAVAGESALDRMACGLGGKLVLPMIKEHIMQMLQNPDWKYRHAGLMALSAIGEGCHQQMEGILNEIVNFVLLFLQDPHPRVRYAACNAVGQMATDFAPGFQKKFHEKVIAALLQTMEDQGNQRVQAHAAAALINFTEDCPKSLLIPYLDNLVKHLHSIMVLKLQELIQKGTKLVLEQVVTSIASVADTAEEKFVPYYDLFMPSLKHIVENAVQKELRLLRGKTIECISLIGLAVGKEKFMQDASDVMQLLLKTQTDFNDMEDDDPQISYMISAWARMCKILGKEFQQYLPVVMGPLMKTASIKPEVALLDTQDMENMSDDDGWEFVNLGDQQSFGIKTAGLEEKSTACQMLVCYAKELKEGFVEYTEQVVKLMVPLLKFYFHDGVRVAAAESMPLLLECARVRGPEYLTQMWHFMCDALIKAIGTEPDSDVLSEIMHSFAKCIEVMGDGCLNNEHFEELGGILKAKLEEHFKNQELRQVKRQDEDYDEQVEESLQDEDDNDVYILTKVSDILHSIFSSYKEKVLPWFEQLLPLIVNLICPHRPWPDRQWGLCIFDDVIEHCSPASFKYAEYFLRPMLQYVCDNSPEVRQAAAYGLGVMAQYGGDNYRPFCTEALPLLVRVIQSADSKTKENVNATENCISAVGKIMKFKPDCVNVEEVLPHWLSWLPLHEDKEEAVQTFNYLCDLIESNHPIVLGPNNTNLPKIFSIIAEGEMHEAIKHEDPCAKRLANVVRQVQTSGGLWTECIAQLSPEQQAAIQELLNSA
UniProt Q96AE4: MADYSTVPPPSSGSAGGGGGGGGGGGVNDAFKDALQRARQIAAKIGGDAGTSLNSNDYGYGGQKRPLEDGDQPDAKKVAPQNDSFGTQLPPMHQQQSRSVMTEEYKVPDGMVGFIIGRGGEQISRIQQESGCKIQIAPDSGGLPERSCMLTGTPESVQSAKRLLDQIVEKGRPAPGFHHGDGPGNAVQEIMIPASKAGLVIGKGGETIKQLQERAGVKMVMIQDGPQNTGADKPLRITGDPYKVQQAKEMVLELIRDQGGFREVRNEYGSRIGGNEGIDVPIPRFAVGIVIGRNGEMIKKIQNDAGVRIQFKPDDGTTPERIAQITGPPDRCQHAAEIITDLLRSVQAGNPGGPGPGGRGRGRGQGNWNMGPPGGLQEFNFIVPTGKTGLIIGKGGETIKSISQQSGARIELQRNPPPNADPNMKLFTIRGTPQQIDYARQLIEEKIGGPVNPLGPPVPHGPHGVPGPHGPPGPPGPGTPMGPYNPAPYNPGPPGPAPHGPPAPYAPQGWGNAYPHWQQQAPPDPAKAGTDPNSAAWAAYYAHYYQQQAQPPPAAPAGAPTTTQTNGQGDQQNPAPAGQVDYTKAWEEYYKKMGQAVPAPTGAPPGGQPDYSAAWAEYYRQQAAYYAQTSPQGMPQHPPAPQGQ
UniProt Q9H2W2: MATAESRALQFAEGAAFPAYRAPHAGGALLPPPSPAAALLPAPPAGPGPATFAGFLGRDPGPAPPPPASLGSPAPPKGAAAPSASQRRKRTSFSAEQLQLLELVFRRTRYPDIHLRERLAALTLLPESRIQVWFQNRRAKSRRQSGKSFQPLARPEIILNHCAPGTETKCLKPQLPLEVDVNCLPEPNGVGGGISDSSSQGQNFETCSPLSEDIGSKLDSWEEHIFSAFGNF
UniProt Q13123: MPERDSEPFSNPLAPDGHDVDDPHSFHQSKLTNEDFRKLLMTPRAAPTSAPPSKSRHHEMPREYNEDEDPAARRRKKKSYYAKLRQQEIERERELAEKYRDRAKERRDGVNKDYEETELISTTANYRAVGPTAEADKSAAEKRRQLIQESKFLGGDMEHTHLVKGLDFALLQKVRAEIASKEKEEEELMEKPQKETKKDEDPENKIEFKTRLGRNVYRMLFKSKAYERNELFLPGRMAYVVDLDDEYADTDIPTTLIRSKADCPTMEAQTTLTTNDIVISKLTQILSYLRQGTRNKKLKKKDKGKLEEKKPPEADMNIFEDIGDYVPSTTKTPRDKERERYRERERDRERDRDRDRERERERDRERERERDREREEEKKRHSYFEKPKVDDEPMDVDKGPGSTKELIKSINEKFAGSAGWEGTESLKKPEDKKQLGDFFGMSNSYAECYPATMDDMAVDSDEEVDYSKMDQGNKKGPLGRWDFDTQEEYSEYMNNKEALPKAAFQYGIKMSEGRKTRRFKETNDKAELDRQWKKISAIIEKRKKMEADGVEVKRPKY
UniProt P49321: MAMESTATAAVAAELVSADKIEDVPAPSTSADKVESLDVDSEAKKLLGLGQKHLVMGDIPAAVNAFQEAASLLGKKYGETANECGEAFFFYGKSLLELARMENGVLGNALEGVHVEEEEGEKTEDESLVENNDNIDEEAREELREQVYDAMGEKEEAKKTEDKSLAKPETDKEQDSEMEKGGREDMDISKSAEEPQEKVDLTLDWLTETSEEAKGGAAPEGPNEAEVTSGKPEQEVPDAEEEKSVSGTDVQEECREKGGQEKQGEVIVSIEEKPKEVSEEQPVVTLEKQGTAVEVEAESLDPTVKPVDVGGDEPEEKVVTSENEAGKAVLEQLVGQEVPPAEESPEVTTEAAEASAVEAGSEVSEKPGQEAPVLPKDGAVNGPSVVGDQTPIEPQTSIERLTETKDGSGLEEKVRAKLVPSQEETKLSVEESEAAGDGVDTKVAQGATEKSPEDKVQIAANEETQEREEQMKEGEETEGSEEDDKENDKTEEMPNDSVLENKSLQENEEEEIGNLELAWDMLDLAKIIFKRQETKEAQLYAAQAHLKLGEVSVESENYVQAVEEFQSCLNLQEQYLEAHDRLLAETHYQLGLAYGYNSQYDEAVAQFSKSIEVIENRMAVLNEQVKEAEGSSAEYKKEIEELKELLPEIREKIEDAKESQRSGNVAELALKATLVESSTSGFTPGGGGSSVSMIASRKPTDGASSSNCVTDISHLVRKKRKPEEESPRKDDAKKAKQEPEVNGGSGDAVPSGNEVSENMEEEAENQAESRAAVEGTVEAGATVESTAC
UniProt Q9BRT6: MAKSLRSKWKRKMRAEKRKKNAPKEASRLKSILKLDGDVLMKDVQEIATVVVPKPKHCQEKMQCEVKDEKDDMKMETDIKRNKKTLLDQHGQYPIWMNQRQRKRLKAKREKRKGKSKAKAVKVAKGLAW
UniProt P17844: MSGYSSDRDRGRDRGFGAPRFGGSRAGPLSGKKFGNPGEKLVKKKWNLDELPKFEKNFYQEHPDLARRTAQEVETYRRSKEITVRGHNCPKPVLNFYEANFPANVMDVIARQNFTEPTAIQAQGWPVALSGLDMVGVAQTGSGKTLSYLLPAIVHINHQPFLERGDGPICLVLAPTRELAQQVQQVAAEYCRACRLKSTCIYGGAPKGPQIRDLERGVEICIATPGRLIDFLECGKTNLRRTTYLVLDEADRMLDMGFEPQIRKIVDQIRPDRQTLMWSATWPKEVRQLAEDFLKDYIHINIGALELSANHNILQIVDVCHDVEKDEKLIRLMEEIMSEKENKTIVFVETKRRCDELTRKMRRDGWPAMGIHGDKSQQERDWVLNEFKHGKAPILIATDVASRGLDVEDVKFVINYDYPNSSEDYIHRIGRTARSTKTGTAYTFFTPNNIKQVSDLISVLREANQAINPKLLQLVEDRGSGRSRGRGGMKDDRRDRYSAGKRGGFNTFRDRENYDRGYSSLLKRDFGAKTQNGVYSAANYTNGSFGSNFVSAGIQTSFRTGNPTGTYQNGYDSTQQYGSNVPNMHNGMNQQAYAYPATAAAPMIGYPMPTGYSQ
UniProt P12277: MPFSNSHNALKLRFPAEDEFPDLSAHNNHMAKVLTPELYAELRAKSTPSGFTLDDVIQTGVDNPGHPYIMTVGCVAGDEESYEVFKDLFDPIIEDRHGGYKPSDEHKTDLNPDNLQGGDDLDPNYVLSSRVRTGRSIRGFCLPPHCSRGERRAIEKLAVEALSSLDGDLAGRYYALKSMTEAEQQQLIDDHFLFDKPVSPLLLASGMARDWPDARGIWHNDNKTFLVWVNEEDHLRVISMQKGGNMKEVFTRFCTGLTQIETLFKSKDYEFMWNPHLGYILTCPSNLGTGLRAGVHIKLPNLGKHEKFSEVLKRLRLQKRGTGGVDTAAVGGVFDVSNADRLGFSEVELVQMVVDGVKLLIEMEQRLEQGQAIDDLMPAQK
UniProt Q01995: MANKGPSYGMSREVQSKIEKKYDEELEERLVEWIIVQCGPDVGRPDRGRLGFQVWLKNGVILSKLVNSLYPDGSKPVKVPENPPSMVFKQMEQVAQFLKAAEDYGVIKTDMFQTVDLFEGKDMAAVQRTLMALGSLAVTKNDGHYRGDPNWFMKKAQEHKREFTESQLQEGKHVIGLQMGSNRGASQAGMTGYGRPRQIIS
UniProt Q01844: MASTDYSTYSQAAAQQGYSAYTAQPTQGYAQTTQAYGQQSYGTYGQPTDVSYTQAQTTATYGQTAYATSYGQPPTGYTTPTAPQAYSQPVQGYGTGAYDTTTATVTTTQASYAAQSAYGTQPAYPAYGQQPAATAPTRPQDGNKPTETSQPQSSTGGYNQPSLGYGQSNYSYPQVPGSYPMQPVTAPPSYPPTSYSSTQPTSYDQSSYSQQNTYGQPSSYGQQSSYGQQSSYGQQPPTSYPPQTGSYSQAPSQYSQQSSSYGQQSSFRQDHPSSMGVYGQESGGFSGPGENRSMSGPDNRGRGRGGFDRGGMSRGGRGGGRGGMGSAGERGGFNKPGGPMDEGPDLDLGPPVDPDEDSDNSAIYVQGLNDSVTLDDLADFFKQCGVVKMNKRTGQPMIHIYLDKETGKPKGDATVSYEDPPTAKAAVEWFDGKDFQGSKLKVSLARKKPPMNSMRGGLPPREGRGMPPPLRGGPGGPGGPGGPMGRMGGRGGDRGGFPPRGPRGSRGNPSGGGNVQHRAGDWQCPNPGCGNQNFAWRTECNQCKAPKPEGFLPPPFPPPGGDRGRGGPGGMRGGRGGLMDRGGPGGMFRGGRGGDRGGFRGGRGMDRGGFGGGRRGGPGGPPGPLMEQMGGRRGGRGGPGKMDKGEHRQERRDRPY
UniProt Q14978: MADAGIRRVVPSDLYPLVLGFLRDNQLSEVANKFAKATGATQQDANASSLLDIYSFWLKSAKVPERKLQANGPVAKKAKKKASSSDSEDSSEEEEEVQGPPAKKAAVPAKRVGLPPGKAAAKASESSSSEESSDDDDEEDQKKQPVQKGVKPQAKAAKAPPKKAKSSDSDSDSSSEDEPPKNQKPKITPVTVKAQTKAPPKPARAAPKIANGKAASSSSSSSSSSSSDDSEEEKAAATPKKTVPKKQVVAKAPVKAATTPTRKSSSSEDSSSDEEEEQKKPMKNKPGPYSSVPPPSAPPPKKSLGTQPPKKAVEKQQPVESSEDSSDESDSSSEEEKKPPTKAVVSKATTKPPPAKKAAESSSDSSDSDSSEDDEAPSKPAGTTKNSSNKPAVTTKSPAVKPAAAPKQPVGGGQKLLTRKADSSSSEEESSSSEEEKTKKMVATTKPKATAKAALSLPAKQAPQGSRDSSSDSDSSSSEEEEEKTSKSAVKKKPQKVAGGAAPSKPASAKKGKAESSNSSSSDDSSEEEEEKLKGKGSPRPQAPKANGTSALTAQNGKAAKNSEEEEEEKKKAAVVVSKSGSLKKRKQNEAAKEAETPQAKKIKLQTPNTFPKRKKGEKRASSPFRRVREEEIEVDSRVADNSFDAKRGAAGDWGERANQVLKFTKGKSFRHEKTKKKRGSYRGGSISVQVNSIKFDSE
UniProt Q9NX14, residues 30-153: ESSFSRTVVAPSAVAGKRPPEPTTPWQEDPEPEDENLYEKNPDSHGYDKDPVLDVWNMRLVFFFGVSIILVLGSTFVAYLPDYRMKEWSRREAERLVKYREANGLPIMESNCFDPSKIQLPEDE

B1: PRDX2 (protein, UniProt P32119 1-198)
chain: MASGNARIGKPAPDFKATAVVDGAFKEVKLSDYKGKYVVLFFYPLDFTFVCPTEIIAFSNRAEDFRKLGCEVLGVSVDSQFTHLAWINTPRKEGGLGPLNIPLLADVTRRLSEDYGVLKTDEGIAYRGLFIIDGKGVLRQITVNDLPVGRSVDEALRLVQAFQYTDEHGEVCPAGWKPGSDTIKPNVDDSKEYFSKHN
B2: TECR (protein, UniProt Q9NZ01 1-308)
chain: MKHYEVEILDAKTREKLCFLDKVEPHATIAEIKNLFTKTHPQWYPARQSLRLDPKGKSLKDEDVLQKLPVGTTATLYFRDLGAQISWVTVFLTEYAGPLFIYLLFYFRVPFIYGHKYDFTSSRHTVVHLACICHSFHYIKRLLETLFVHRFSHGTMPLRNIFKNCTYYWGFAAWMAYYINHPLYTPPTYGAQQVKLALAIFVICQLGNFSIHMALRDLRPAGSKTRKIPYPTKNPFTWLFLLVSCPNYTYEVGSWIGFAIMTQCLPVALFSLVGFTQMTIWAKGKHRSYLKEFRDYPPLRMPIIPFLL
B3: HNRNPDL (protein, UniProt O14979 1-420)
chain: MEVPPRLSHVPPPLFPSAPATLASRSLSHWRPRPPRQLAPLLPSLAPSSARQGARRAQRHVTAQQPSRLAGGAAIKGGRRRRPDLFRRHFKSSSIQRSAAAAAATRTARQHPPADSSVTMEDMNEYSNIEEFAEGSKINASKNQQDDGKMFIGGLSWDTSKKDLTEYLSRFGEVVDCTIKTDPVTGRSRGFGFVLFKDAASVDKVLELKEHKLDGKLIDPKRAKALKGKEPPKKVFVGGLSPDTSEEQIKEYFGAFGEIENIELPMDTKTNERRGFCFITYTDEEPVKKLLESRYHQIGSGKCEIKVAQPKEVYRQQQQQQKGGRGAAAGGRGGTRGRGRGQGQNWNQGFNNYYDQGYGNYNSAYGGDQNYSGYGGYDYTGYNYGNYGYGQGYADYSGQQSTYGKASRGGGNHQNNYQPY
B4: SEPT7 (protein, UniProt Q16181 1-437)
chain: MSVSARSAAAEERSVNSSTMVAQQKNLEGYVGFANLPNQVYRKSVKRGFEFTLMVVGESGLGKSTLINSLFLTDLYSPEYPGPSHRIKKTVQVEQSKVLIKEGGVQLLLTIVDTPGFGDAVDNSNCWQPVIDYIDSKFEDYLNAESRVNRRQMPDNRVQCCLYFIAPSGHGLKPLDIEFMKRLHEKVNIIPLIAKADTLTPEECQQFKKQIMKEIQEHKIKIYEFPETDDEEENKLVKKIKDRLPLAVVGSNTIIEVNGKRVRGRQYPWGVAEVENGEHCDFTILRNMLIRTHMQDLKDVTNNVHYENYRSRKLAAVTYNGVDNNKNKGQLTKSPLAQMEEERREHVAKMKKMEMEMEQVFEMKVKEKVQKLKDSEAELQRRHEQMKKNLEAQHKELEEKRRQFEDEKANWEAQQRILEQQNSSRTLEKNKKKGKIF
B5: UGP2 (protein, UniProt Q16851 1-508)
chain: MSRFVQDLSKAMSQDGASQFQEVIRQELELSVKKELEKILTTASSHEFEHTKKDLDGFRKLFHRFLQEKGPSVDWGKIQRPPEDSIQPYEKIKARGLPDNISSVLNKLVVVKLNGGLGTSMGCKGPKSLIGVRNENTFLDLTVQQIEHLNKTYNTDVPLVLMNSFNTDEDTKKILQKYNHCRVKIYTFNQSRYPRINKESLLPVAKDVSYSGENTEAWYPPGHGDIYASFYNSGLLDTFIGEGKEYIFVSNIDNLGATVDLYILNHLMNPPNGKRCEFVMEVTNKTRADVKGGTLTQYEGKLRLVEIAQVPKAHVDEFKSVSKFKIFNTNNLWISLAAVKRLQEQNAIDMEIIVNAKTLDGGLNVIQLETAVGAAIKSFENSLGINVPRSRFLPVKTTSDLLLVMSNLYSLNAGSLTMSEKREFPTVPLVKLGSSFTKVQDYLRRFESIPDMLELDHLTVSGDVTFGKNVSLKGTVIIIANHGDRIDIPPGAVLENKIVSGNLRILDH
B6: FKBP4 (protein, UniProt Q02790 1-459)
chain: MTAEEMKATESGAQSAPLPMEGVDISPKQDEGVLKVIKREGTGTEMPMIGDRVFVHYTGWLLDGTKFDSSLDRKDKFSFDLGKGEVIKAWDIAIATMKVGEVCHITCKPEYAYGSAGSPPKIPPNATLVFEVELFEFKGEDLTEEEDGGIIRRIQTRGEGYAKPNEGAIVEVALEGYYKDKLFDQRELRFEIGEGENLDLPYGLERAIQRMEKGEHSIVYLKPSYAFGSVGKEKFQIPPNAELKYELHLKSFEKAKESWEMNSEEKLEQSTIVKERGTVYFKEGKYKQALLQYKKIVSWLEYESSFSNEEAQKAQALRLASHLNLAMCHLKLQAFSAAIESCNKALELDSNNEKGLFRRGEAHLAVNDFELARADFQKVLQLYPNNKAAKTQLAVCQQRIRRQLAREKKLYANMFERLAEEENKAKAEASSGDHPTDTEMKEEQKSNTAGSQSQVETEA
B7: YWHAG (protein, UniProt P61981 1-247)
chain: MVDREQLVQKARLAEQAERYDDMAAAMKNVTELNEPLSNEERNLLSVAYKNVVGARRSSWRVISSIEQKTSADGNEKKIEMVRAYREKIEKELEAVCQDVLSLLDNYLIKNCSETQYESKVFYLKMKGDYYRYLAEVATGEKRATVVESSEKAYSEAHEISKEHMQPTHPIRLGLALNYSVFYYEIQNAPEQACHLAKTAFDDAIAELDTLNEDSYKDSTLIMQLLRDNLTLWTSDQQDDDGGEGNN

These molecules were tested against U2AF2-TurboID-HA (human) (UniProt P26368) (assay: proximity labelling; U2AF2-TurboID-HA induced with doxycycline for 4 h in mesoderm cells differentiated from hiPSC (CHIR99021, 24 h); biotinylated proteins purified on streptavidin magnetic beads, LC-MS with label-free quantification; hits: Log2ΔLFQ >= 2 and p <= 0.05, mesoderm against pluripotent U2AF2-TurboID samples or against GFP-TurboID).

binding | Molecule
binds | KPNB1 (from UniProt Q14974 1-876)
binds | IPO5 (from UniProt O00410 1-1097)
binds | PRPF40A (from UniProt O75400 1-957)
binds | COL4A1 (from UniProt P02462)
binds | ZNF638 (from UniProt Q14966 1-1978)
binds | FUBP1 (from UniProt Q96AE4 1-644)
binds | MIXL1 (from UniProt Q9H2W2 1-232)
binds | TCF12 (from UniProt Q99081 1-682)
binds | IK (from UniProt Q13123 1-557)
binds | HMGA1 (from UniProt P17096 1-107)
binds | NASP (from UniProt P49321 1-788)
binds | SON (from UniProt P18583 1-2426)
binds | SEC61B (from UniProt P60468 1-96)
binds | U2SURP (from UniProt O15042 1-1029)
binds | LLPH (from UniProt Q9BRT6 1-129)
binds | DDX5 (from UniProt P17844 1-614)
binds | CKB (from UniProt P12277 1-381)
binds | TAGLN (from UniProt Q01995 1-201)
binds | EWSR1 (from UniProt Q01844 1-656)
binds | NDUFS6 (from UniProt O75380 29-124)
binds | NOLC1 (from UniProt Q14978 1-699)
binds | EIF1AY (from UniProt O14602 1-144)
binds | NDUFB11 (from UniProt Q9NX14 30-153)

Each molecule was assayed against U2AF2-TurboID-HA (human) (UniProt P26368) (assay: proximity labelling; U2AF2-TurboID-HA induced with doxycycline for 4 h in pluripotent hiPSC; biotinylated proteins purified on streptavidin magnetic beads, LC-MS with label-free quantification; hits: Log2ΔLFQ >= 2 and p <= 0.05, pluripotent against mesoderm U2AF2-TurboID samples).

binding | Molecule
binds | B1
binds | B2
binds | B3
binds | B4
binds | B5
binds | B6
binds | B7

These are yes or no findings as the source states them, for the method shown. Binding seen in cells or lysates may run through a third protein. Here binding means that the protein was enriched with, or labelled near, the bait; the list need not be complete.
